# The supplement of paper PMC12067093, “Discovery and optimisation of a covalent ligand for TRIM25 and its application to targeted protein ubiquitination” (Chemical Science, 2025)
# Protein sequences, listed by entry. Tags and fused reporters are not part of them. Lines headed by an entry give the natural chain unless they say otherwise; changes in a name come on top.
# UniProt O95980: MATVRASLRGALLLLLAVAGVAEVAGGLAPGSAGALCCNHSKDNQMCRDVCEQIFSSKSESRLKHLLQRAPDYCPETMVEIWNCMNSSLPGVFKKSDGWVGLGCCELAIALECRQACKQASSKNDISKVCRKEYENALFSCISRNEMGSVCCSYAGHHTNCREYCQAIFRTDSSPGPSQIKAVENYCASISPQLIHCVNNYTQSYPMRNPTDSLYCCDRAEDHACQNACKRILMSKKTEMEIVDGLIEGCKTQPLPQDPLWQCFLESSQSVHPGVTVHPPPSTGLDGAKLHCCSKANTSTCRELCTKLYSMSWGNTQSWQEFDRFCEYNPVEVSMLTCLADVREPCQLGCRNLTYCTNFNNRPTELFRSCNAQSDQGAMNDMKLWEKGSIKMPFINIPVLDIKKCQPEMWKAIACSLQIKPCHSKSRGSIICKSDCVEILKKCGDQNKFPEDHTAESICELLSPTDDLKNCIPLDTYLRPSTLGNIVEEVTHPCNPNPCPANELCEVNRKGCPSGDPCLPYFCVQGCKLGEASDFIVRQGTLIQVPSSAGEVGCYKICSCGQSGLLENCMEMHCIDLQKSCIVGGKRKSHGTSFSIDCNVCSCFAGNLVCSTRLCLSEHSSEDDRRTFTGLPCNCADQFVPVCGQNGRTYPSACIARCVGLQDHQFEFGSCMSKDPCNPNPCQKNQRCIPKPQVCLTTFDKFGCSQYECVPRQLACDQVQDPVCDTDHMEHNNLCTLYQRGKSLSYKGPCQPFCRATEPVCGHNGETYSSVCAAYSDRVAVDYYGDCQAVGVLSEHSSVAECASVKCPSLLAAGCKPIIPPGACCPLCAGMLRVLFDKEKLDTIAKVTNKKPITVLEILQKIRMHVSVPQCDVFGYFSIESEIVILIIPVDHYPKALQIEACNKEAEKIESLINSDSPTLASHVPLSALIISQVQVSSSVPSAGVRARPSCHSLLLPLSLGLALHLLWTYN
# UniProt Q5T160: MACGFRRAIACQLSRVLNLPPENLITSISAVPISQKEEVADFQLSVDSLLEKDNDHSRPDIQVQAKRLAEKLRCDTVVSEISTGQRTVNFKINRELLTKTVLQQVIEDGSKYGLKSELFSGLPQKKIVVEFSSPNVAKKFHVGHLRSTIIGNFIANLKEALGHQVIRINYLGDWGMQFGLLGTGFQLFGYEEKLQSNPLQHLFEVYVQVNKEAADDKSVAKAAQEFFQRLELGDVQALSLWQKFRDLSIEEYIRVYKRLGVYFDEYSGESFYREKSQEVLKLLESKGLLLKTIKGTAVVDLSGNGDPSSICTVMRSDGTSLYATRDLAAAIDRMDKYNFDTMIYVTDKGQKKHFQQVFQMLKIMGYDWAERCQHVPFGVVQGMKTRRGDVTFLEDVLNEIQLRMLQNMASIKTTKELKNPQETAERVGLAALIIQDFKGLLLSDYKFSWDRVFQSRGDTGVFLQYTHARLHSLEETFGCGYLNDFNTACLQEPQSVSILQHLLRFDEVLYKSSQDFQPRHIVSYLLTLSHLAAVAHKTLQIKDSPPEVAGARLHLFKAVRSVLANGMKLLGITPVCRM
# UniProt P46060: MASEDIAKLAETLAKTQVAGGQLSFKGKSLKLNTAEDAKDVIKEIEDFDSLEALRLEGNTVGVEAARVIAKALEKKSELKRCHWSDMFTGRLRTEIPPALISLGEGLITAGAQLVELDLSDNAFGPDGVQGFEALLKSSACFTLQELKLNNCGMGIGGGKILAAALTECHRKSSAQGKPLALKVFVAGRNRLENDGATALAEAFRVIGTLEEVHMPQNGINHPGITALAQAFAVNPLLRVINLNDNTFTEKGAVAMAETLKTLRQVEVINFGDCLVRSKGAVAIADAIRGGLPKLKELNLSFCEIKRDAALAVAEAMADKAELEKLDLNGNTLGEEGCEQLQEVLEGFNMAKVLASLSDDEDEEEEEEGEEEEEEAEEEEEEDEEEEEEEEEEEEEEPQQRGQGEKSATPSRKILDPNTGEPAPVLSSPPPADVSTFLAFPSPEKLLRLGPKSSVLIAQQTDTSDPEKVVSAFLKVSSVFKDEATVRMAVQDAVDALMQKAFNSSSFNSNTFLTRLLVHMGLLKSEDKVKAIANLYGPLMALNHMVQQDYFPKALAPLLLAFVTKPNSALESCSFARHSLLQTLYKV
# UniProt Q9NW13: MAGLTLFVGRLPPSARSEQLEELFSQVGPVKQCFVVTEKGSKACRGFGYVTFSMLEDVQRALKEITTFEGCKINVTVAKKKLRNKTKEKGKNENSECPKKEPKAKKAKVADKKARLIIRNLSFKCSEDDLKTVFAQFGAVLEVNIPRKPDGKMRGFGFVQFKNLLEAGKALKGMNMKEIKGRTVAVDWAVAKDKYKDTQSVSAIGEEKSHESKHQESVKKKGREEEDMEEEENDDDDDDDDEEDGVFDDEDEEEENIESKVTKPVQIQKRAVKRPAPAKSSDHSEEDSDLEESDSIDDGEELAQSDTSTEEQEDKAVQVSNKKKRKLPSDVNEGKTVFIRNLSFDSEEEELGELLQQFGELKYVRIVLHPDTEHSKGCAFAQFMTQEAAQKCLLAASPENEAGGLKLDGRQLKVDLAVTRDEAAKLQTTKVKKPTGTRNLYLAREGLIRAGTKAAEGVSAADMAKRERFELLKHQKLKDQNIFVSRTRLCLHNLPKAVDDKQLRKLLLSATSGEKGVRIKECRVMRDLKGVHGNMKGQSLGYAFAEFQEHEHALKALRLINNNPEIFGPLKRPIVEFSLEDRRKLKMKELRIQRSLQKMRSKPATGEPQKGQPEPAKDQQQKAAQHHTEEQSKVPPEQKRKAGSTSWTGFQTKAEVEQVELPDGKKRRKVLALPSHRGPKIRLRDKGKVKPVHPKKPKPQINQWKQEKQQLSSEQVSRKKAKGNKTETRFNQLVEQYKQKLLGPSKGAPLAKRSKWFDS
# UniProt Q9HBH5: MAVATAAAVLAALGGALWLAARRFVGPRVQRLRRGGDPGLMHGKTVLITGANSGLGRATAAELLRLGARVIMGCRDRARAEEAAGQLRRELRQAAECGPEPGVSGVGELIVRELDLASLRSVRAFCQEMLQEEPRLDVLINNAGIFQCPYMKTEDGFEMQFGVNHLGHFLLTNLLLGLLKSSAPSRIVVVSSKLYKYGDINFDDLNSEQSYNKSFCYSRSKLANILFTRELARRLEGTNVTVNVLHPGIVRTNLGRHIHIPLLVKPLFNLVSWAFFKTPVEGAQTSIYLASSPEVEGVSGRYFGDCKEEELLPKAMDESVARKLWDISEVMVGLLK
# UniProt A6NED2: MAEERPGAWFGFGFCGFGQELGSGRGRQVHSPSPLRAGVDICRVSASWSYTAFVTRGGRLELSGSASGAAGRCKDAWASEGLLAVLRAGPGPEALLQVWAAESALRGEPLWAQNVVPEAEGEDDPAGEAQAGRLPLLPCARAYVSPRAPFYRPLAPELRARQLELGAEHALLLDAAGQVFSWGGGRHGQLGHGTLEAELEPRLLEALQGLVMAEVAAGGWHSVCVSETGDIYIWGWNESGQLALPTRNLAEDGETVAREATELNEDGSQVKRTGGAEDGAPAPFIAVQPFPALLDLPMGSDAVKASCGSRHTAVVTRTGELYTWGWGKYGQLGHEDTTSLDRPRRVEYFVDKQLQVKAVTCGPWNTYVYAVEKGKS
# UniProt P78332: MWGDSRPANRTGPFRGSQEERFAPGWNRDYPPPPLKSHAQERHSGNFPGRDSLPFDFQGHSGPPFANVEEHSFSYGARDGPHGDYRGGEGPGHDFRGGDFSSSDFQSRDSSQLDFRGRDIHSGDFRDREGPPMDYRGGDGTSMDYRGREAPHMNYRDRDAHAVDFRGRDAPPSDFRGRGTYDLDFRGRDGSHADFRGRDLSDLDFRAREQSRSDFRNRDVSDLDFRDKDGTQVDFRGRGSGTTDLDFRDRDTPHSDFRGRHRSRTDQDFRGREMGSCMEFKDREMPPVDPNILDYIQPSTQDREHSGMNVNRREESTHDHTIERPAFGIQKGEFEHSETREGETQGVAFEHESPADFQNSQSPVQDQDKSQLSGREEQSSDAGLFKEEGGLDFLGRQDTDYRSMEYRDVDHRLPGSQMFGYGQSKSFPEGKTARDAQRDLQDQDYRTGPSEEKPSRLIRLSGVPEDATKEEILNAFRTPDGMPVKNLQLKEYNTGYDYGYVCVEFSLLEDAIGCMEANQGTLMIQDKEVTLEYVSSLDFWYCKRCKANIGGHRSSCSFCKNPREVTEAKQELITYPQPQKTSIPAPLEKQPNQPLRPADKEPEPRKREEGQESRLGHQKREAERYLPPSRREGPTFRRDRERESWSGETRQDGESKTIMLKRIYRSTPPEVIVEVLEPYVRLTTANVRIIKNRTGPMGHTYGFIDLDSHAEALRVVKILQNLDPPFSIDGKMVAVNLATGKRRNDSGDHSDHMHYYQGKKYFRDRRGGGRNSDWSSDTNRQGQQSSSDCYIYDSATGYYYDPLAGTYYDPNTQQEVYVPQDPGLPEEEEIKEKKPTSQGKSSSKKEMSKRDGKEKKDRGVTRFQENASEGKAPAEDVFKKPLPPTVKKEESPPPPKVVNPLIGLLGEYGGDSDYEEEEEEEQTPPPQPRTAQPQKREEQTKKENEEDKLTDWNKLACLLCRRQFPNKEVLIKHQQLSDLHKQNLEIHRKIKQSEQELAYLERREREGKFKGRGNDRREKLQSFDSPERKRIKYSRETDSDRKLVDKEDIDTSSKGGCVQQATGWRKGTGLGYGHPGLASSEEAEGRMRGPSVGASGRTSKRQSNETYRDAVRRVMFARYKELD
# UniProt Q8TDF6: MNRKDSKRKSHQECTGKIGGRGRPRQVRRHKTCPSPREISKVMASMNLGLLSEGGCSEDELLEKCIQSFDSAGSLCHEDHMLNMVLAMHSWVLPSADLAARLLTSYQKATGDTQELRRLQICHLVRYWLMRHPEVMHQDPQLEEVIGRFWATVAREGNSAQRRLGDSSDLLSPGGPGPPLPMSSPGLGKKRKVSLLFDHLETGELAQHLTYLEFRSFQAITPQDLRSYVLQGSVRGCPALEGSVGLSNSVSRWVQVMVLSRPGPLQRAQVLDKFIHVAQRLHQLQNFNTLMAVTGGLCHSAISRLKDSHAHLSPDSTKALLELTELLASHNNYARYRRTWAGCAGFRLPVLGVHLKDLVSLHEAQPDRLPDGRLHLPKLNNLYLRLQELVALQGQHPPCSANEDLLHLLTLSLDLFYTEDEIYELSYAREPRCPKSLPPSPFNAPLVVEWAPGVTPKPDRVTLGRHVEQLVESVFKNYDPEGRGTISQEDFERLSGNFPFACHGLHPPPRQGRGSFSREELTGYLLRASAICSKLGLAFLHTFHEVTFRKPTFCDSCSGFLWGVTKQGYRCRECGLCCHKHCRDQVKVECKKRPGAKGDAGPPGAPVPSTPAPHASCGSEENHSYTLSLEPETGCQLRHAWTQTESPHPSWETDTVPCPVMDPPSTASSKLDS
# UniProt Q15291, whole entry, looked up: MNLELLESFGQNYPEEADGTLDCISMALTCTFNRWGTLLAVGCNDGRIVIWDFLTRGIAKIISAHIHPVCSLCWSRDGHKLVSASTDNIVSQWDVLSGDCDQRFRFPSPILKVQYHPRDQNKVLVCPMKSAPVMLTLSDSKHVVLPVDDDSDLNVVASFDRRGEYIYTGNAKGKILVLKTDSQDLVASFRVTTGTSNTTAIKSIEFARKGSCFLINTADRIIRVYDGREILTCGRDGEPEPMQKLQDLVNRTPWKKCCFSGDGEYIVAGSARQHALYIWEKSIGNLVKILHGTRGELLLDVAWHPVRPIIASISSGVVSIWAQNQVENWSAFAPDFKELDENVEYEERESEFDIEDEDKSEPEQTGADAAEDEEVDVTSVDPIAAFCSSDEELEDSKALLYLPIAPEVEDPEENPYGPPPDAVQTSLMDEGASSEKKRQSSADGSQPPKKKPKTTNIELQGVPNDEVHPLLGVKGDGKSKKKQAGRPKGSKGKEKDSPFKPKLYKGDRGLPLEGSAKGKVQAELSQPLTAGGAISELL
# The other results are listed elsewhere or left out.
# Compound: Cc1cc(ccc1-c1ccccc1)C(=O)N1CCCN(CC1)C(=O)CCl [compound 10]
# Assay: probe-labelled cysteine peptide fold change vs DMSO (competition) (log2 fold change); higher = less target engagement (more negative = stronger competition)
# Conditions: THP-1, incubation time: 4 h
# 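Further: competitive profiling in live THP-1 cells: cysteine peptides tagged with an iodoacetamide desthiobiotin (IA-DTB) probe, intensity after compound treatment relative to DMSO-treated cells.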
Target,probe-labelled cysteine peptide fold change (10 µM),probe-labelled cysteine peptide fold change (50 µM)
RECK_O95980_902_ALQIEACNK (UniProt O95980),-0.445,0.0576
RARS2_Q5T160_372_CQHVPFGVVQGMK (UniProt Q5T160),-0.106,-0.169
RARS_P54136_150_HLPDNECIEK (UniProt P54136),0.011,0.000165
RASA1_P20936_616_HFTNPYCNIYLNSVQVAK (UniProt P20936),0.015,0.021
RANGAP1_P46060_82_RCHWSDMFTGR (UniProt P46060),0.0509,0.0272
RBM28_Q9NW13_71_EITTFEGCK (UniProt Q9NW13),-0.0471,-0.0789
RBM12B_Q8IXT5_204_FASCVDASGGLK (UniProt Q8IXT5),0.0426,-0.362
RDH14_Q9HBH5_148_LDVLINNAGIFQCPYMK (UniProt Q9HBH5),0.0587,0.171
RAPGEF6_Q8TEU7_796_EVVFHAVHEFGLTGASDTYSLCEVSVTPEGVIK (UniProt Q8TEU7),0.354,0.395
RCCD1_A6NED2_42_AGVDICR (UniProt A6NED2),-0.0414,-0.338
RASAL2_Q9UJF2_189_YFCELCLDDTLFAR (UniProt Q9UJF2),0.00959,-0.237
RBM6_P78332_957+960_LACLLCR (UniProt P78332),0.0979,-0.287
RASGRP4_Q8TDF6_14_SHQECTGK (UniProt Q8TDF6),-0.159,-0.508
RALGAPB_Q86X10_1096_SFPDPVTDCKPPPPAQEFQTAR (UniProt Q86X10),0.0369,0.00903
RBBP5_Q15291_43_WGTLLAVGCNDGR (UniProt Q15291),-0.0227,0.0172

# Already shown: entries from further up.
Target,probe-labelled cysteine peptide fold change (10 µM),probe-labelled cysteine peptide fold change (50 µM)
RECK_O95980_902_ALQIEACNK (UniProt O95980),-0.445,0.0576
RARS2_Q5T160_372_CQHVPFGVVQGMK (UniProt Q5T160),-0.106,-0.169
